Results are given in words; binding and its absence hold for the method and conditions named. Binding seen in cells or lysates may run through a third protein. Some results given as binding are weak or reduced against the parent protein; the word gives no strength.
Biological target: T1, Serglycin (SRGN) (mouse (endogenous in microglia)) (UniProt P13609)
T1 sequence: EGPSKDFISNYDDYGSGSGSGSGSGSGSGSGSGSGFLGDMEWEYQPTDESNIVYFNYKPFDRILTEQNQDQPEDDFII
Experiment: co-IP; 500 ug proteins with 1 ug anti-SRGN antibody or normal mouse IgG overnight at 4 °C, then protein A/G agarose beads at 4 °C for 2 h; three washes; western blotting; microglia in vitro

- binding: binds
B1: CD44 (receptor, UniProt P15379 23-778)
chain: QIDLNVTCRYAGVFHVEKNGRYSISRTEAADLCQAFNSTLPTMDQMKLALSKGFETCRYGFIEGNVVIPRIHPNAICAANHTGVYILVTSNTSHYDTYCFNASAPPEEDCTSVTDLPNSFDGPVTITIVNRDGTRYSKKGEYRTHQEDIDASNIIDDDVSSGSTIEKSTPEGYILHTYLPTEQPTGDQDDSFFIRSTLATIASTVHSKSHAAAQKQNNWIWSWFGNSQSTTQTQEPTTSATTALMTTPETPPKRQEAQNWFSWLFQPSESKSHLHTTTKMPGTESNTNPTGWEPNEENEDETDTYPSFSGSGIDDDEDFISSTIATTPRVSARTEDNQDWTQWKPNHSNPEVLLQTTTRMADIDRISTSAHGENWTPEPQPPFNNHEYQDEEETPHATSTTPNSTAEAAATQQETWFQNGWQGKNPPTPSEDSHVTEGTTASAHNNHPSQRITTQSQEDVSWTDFFDPISHPMGQGHQTESKDTDSSHSTTLQPTAAPNTHLVEDLNRTGPLSVTTPQSHSQNFSTLHGEPEEDENYPTTSILPSSTKSSAKDARRGGSLPTDTTTSVEGYTFQYPDTMENGTLFPVTPAKTEVFGETEVTLATDSNVNVDGSLPGDRDSSKDSRGSSRTVTHGSELAGHSSANQDSGVTTTSGPMRRPQIPEWLIILASLLALALILAVCIAVNSRRRCGQKKKLVINGGNGTVEDRKPSELNGEASKSQEMVHLVNKEPSETPDQCMTADETRNLQSVDMKIGV

Source: publication PMC10826034
